Measurements reported in patent KR20130126543A.
Results are given in words; binding and its absence hold for the method and conditions named. Some results given as binding are weak or reduced against the parent protein; the word gives no strength.

By UniProt entry, the sequences of proteins in these tests, tags left out. Residues count along the entry.
UniProt P08887, residues 20-365: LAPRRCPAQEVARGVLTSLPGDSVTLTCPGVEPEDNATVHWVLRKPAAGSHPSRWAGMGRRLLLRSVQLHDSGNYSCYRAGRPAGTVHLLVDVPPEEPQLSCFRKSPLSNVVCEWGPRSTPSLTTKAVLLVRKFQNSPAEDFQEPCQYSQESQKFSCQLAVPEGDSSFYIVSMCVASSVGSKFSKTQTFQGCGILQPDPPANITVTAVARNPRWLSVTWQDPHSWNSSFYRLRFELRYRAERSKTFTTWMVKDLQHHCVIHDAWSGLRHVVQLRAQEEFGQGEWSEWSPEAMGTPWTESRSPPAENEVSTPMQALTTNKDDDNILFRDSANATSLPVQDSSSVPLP

B1: 항 IL-6R 단클론 항체 A7 (antibody, V domains shown)
VH: QMQLVESGGGLVQPGTSLRLSCAASGFKFEDYAMHWVRQAPGKGLEWVSGVSWNSGTIAYVDSVKGRFTISRDNAKNSLYLQMNSLRAEDTAVYYCARDFTYFYESSGYYAFDLWGQGTMVTVSS
VL: SQLVLTQPPSVSGAPGQRVTISCTGTNSNIGAGYDVHWYQQVPGTTPKLLIYGNTNRPSGVPDRFSGSKSGTSASLAITGLQAEDGGDYYCQSFDSSLTGSVFGTGTKVTVL
B2: 항 IL-6R 단클론 항체 F2 (antibody, V domains shown)
VH: QVQLVESGAEVKKPGASVKVSCKASGYTFTNYYMHWVRQAPGQGLEWMGIINPSGGNTGYAQKFQGRVTMTRDMSTSTAYMELSSLRSEDTAVYYCARGLPWGENGLDVWGQGTTVTVSS
VL: SQLVLTQPSSVSGAPGQTVTISCTGSSSNIGAGYDVHWYQQLPGTAPKVLIYGDSDRPSGVPDRFSGSKSATSASLAITGLQAEDEADYYCQSYDSSLSAYVFGTGTKVTVL

Target: IL-6R-Fc 항원 (human) (UniProt P08887)
Assay: ELISA titration on coated IL-6R

Binder | binding
B1 | binds
B2 | binds
